Results reported in PMC3124131 (Frontiers in Pharmacology, 2010).
“And” between values parts separate entries of the source, which are not always exact repeats. Equal entries are not always repeated.

System: [^125I]-ICYP binding sites in rat lung membranes (β1- and β2-adrenoceptors)
Experiment: [125I]-ICYP competition radioligand binding in rat lung membranes
Conditions: [125I]-ICYP concentration 82 ± 2 pM (n = 37)
Experimental: All experiments were performed under the German legislation for the care of experimental animals. Adult Wistar rats of either gender were obtained from the breeding facility at the University of Essen Medical School. They were killed by decapitation under light ether anesthesia. Lung and bladder were rapidly removed, freed from surrounding connective tissues and rapidly frozen in liquid nitrogen. Thereafter, they were stored until use for up to 3 months at −70°C. On the day of the experiment, the tissues were thawed in ice-cold preparation buffer (50 mM Tris, 10 mM MgCl2, 0.5 mM EDTA, pH 7.5), minced with scissors and homogenized with an Ultra-Turrax (Janke & Kunkel, Staufen, Germany) for 10 s at full speed and then twice for 20 s each at 2/3 speed. The homogenates were filtered through medical gauze and then centrifuged for 20 min at 50,000 g at 4°C. The pellets were re-suspended in buffer, re-homogenized shortly (10 s at full speed) and washed by an additional centrifugation step. The final pellets were re-suspended and re-homogenized in binding buffer (see below).
Radioligand binding assays were performed as previously described (Goepel et al., [1997]) with minor modifications. […] Filters were washed with approximately 20 ml ice-cold incubation buffer.
Saturation binding data were analyzed by fitting rectangular hyperbolic functions to the experimental data. […]

CC(C)(C)NCC(O)COc1cccc2[nH]c(C#N)c([125I])c12 (stereo not shown) [[^125I]-ICYP, [^125I]-iodocyanopindolol]
non-specific binding: 24 ± 1% and 24%
